# PubChem BioAssay AID602196 | INSERM | 2012
# Assay: 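Genes whose knock-down alters cisplatin killing of lung cancer cells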
# System: human A549 lung cancer cells
# Reagents: siRNA pair against human genes
# Time to read-out: 48 h transfection before cisplatin; time from cisplatin to read-out not stated
# Challenge: cisplatin at a dose killing half of control-siRNA cells; exact dose and duration not given
# Measured: 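Cisplatin cell death as a shift from the 50% death seen with control siRNA; siRNAs toxic or growth-blocking alone scored 0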
# Direction: two-siRNA summed score (-2 to +2): higher = both siRNAs protect from cisplatin killing; -2 means both sensitise
# Hit rule: 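siRNAs harmful alone (LDH or WST-1) get 0; others get +1 for less and -1 for more cisplatin killing; genes are active when the two siRNAs give the same sign, summing to ±2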
# Meaning of the calls: active = both siRNAs shift cisplatin killing the same way; inactive = no consistent shift, or siRNA harmful alone
# The whole screen tested about 23,000 reagents; shown is an unselected part. 455 of them (2%) count as active. 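Active includes both protection and sensitisation; some change values fall well beyond the stated -50 to +50 range.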 Further read-outs or replicates are left out here. Not stated in the record: the amount of reagent.
gene,two-siRNA summed score (-2 to +2),outcome
ZNF682,1,inactive
CFAP45,-1,inactive
FRA10AC1,0,inactive
OR10G9,0,inactive
MRPL18,0,inactive
FLJ35785,0,inactive
HBA2,0,inactive
SNCB,0,inactive
MAGEA2,0,inactive
F11-AS1,0,inactive
RNF141,0,inactive
LOC442108,0,inactive
PKP2,0,inactive
LOC338586,0,inactive
SLC25A35,1,inactive
PF4V1,-1,inactive
CCDC70,0,inactive
DLK1,0,inactive
LOC401336,0,inactive
SLC28A2,0,inactive
AGBL1,0,inactive
RPSA2,0,inactive
TGM7,-1,inactive
NCAPD2,0,inactive
MBD2,0,inactive
CCDC177,0,inactive
SART3,0,inactive
LOC387745,0,inactive
ARHGEF26,0,inactive
LOC389813,0,inactive
SEZ6L2,0,inactive
PLA2G2F,0,inactive
LOC442593,1,inactive
LOC341720,0,inactive
CLSTN3,0,inactive
LOC401215,0,inactive
FAM133B,-1,inactive
GNAL,0,inactive
CD58,0,inactive

Already shown: 2 of the entries above.
gene,two-siRNA summed score (-2 to +2),outcome
AGBL1,0,inactive
RPSA2,0,inactive
